Source: the supplement of paper PMC10849652
The list shows a part of the results.

Protein sequences, listed by entry. Tags and fused reporters are not part of them. Lines headed by an entry give the natural chain unless they say otherwise; changes in a name come on top.
UniProt O00487, whole entry, looked up: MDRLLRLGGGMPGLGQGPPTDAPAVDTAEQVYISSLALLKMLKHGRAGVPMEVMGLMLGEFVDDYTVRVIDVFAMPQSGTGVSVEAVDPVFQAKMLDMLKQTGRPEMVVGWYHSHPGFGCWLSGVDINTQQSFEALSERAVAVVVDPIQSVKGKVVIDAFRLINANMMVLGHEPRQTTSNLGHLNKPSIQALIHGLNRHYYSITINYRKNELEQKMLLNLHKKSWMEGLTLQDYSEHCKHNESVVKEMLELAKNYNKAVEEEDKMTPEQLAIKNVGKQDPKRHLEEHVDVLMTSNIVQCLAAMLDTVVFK
UniProt Q00577: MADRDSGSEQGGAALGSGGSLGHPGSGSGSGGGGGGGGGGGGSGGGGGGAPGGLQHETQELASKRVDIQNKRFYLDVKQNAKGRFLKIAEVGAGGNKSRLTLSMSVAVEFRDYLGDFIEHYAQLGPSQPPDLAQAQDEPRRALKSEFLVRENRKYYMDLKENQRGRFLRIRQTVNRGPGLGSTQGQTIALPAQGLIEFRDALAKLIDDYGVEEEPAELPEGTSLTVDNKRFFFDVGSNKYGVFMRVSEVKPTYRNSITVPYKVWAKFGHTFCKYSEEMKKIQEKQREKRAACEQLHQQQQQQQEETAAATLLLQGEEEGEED
UniProt P06454: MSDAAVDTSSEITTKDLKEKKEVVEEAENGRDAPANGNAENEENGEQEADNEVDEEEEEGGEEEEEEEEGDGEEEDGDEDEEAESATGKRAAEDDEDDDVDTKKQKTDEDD
UniProt Q9Y617: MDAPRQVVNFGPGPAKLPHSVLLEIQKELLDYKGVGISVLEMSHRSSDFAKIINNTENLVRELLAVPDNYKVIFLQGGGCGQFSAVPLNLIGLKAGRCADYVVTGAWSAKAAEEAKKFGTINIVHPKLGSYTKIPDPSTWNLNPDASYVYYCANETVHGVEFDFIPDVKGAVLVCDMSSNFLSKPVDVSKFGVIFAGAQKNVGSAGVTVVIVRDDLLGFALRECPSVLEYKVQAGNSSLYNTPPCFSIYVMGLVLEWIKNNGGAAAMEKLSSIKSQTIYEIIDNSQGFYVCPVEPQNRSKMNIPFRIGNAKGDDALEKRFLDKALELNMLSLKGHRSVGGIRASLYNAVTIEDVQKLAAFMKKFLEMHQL
UniProt P15151: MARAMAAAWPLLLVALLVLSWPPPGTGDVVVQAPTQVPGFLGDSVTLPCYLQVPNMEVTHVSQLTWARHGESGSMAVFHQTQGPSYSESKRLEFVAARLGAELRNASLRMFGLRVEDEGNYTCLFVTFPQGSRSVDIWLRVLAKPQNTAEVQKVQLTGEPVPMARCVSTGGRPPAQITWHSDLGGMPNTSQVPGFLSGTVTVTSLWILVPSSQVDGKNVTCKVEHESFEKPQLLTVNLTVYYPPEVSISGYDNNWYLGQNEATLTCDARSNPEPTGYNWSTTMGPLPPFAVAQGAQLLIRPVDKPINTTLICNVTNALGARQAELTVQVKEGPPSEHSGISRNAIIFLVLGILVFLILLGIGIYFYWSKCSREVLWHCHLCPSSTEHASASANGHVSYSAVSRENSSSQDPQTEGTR
UniProt Q15008: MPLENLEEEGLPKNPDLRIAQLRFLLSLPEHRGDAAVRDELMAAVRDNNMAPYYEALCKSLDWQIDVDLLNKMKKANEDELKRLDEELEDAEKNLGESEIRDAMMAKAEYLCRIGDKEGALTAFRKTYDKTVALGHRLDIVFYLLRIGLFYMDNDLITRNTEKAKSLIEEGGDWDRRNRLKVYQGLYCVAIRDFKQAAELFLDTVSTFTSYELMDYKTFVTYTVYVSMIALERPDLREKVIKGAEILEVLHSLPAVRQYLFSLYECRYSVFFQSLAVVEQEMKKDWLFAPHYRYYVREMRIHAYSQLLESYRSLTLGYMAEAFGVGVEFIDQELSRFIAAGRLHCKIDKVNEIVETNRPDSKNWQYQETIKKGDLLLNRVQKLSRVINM
UniProt P25787: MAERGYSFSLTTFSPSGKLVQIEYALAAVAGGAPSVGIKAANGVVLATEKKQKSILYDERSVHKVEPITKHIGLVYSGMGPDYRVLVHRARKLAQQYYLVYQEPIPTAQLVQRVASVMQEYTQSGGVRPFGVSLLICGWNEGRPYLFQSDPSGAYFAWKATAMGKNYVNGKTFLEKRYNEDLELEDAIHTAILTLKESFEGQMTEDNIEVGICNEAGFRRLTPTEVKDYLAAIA
UniProt Q5JSZ5: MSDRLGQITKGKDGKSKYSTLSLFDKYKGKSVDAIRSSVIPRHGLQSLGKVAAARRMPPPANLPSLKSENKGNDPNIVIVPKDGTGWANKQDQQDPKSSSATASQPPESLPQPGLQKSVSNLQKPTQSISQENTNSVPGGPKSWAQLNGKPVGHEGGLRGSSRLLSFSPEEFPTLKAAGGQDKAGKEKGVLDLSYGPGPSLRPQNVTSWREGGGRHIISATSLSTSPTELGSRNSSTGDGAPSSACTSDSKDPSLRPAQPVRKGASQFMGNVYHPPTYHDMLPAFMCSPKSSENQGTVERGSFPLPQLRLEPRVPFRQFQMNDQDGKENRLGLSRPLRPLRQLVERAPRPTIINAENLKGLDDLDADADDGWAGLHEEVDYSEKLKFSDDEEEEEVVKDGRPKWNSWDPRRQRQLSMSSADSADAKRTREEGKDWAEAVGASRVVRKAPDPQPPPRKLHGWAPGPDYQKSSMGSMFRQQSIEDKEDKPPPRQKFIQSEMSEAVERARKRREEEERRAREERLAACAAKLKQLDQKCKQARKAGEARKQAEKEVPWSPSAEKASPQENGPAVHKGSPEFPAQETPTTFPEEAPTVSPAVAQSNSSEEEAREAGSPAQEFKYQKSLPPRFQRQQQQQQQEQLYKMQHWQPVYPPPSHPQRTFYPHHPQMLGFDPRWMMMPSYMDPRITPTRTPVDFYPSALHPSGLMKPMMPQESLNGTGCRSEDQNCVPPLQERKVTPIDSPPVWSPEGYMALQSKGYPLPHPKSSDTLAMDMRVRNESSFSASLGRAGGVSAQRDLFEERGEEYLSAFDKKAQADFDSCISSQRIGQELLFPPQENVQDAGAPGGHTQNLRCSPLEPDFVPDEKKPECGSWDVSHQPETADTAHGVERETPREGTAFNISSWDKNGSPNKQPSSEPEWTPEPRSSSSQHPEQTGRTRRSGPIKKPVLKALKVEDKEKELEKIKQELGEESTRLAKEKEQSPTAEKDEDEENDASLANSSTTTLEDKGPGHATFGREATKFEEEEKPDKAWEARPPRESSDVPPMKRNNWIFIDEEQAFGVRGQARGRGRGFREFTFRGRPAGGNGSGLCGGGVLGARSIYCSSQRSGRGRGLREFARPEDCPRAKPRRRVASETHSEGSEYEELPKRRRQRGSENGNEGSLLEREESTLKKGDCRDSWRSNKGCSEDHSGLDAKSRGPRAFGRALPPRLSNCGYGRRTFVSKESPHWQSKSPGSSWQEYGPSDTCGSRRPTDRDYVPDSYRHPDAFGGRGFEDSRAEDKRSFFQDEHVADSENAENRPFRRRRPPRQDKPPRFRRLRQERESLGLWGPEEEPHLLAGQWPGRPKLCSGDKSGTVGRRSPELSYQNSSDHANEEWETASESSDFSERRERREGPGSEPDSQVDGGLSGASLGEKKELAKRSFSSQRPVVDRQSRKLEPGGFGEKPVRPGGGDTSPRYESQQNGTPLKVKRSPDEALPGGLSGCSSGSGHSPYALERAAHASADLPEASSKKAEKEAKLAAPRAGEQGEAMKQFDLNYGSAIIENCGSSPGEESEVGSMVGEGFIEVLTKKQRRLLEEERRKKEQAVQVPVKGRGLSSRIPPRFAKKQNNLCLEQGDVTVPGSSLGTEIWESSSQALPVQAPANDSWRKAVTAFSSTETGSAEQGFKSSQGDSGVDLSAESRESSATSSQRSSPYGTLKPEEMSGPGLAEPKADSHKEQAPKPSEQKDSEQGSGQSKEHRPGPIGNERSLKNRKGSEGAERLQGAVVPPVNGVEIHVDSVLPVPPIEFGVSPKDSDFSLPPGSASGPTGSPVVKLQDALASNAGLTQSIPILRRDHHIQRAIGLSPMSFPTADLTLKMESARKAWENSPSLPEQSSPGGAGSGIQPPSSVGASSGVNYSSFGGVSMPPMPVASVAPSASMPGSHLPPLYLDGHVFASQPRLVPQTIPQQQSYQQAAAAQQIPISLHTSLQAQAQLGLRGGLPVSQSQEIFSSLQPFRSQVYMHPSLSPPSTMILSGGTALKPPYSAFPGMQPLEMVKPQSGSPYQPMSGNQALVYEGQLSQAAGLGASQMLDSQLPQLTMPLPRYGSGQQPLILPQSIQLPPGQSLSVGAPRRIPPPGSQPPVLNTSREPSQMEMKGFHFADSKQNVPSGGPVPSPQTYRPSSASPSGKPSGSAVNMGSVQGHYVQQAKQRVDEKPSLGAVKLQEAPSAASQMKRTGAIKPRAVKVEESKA
UniProt Q13308: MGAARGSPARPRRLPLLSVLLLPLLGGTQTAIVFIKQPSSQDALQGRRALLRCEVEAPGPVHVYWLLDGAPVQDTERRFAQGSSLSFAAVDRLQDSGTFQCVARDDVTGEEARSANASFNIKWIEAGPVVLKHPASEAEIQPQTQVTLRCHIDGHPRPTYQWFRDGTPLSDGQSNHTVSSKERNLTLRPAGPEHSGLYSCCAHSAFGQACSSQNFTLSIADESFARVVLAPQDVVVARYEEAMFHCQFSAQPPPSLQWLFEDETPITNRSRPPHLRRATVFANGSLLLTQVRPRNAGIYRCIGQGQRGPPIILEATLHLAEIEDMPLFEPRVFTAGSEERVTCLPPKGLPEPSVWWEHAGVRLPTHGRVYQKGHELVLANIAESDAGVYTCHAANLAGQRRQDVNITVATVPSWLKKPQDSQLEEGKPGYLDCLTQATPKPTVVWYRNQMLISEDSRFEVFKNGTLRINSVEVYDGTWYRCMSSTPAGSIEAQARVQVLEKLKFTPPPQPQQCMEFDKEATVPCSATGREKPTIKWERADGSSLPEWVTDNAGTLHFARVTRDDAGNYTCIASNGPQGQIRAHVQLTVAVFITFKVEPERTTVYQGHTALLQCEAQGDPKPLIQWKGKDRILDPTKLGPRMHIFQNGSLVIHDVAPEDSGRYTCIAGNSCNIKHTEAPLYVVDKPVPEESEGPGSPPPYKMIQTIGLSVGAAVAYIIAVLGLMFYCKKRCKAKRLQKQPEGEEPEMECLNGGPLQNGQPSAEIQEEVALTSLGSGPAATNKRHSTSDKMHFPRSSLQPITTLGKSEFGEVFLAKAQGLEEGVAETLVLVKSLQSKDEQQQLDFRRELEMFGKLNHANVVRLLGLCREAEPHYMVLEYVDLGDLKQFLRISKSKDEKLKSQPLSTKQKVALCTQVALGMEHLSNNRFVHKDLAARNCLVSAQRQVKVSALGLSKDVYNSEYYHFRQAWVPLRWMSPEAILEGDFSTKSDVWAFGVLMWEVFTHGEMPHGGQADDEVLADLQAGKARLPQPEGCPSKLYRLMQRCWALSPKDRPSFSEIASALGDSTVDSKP
UniProt Q6PGN9: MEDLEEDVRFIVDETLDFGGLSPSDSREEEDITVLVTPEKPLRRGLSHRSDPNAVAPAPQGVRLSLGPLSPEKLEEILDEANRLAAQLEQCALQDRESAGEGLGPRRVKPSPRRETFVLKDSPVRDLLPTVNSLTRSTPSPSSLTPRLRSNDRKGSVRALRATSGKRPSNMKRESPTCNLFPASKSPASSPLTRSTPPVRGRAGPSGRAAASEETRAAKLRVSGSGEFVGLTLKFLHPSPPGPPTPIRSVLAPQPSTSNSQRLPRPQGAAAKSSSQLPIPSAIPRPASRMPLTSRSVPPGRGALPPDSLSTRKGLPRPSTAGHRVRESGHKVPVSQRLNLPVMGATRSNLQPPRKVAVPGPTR
UniProt Q9Y3E5: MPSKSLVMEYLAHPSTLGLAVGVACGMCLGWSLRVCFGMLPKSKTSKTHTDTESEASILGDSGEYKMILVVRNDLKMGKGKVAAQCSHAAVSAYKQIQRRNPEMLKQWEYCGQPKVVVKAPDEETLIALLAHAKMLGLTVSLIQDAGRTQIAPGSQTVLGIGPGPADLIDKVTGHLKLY
UniProt Q9Y6M0: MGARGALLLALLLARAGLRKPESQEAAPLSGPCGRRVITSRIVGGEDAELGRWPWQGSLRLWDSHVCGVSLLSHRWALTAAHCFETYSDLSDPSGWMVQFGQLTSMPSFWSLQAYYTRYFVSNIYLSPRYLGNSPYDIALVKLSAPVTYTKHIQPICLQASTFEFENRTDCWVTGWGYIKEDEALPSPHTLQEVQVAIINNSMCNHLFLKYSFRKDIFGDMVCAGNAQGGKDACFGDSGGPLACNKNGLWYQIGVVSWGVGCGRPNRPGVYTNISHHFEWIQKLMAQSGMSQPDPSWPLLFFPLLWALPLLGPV
UniProt Q06323: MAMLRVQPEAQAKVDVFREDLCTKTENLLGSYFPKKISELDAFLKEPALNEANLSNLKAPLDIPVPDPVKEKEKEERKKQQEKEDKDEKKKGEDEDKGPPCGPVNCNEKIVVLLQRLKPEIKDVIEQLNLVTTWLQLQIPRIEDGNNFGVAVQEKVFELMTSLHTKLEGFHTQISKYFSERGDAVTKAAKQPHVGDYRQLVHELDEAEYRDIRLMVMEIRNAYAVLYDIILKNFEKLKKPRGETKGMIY

compound: C1=CC=C2C(=C1)C3=NNC4=CC=CC(=C43)C2=O; experiment: log2 fold change, soluble protein after heating vs DMSO (PISA); higher = thermal stabilisation; K562 lysate, 10 uM; active = over 0.2 and 3.5 SD of the protein, either way, in both replicates (recomputed)
Summary of the method: (§1)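 The values are log-two fold changes in thermal stability compared with solvent controls and come from duplicates. They were obtained by TMTpro 16plex LC-MS/MS, with channel sums equalised, on the supernatant after 21,000xg for 90 min. That supernatant came from crude K562 extract at 1 mg/mL protein treated with 10 μM compound for 30 min, heated for 3 min across 48°C-58°C, pooled and brought to 0.5% NP-40 at 4°C.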

log2 fold change, inactive:
PSMD14 (UniProt O00487) 0.024
PTBP1 (UniProt P26599) 0.006
PSMB1 (UniProt P20618) -0.01
PTRHD1 (UniProt Q6GMV3) -0.07
PTK2B (UniProt Q14289) 0.066
PURA (UniProt Q00577) 0.079
PTMA (UniProt P06454) -0.017
PUS7 isoform 2 (UniProt Q96PZ0) 0.001
PSAT1 (UniProt Q9Y617) -0.008
PRUNE1 (UniProt Q86TP1) 0.002
PSMG1 (UniProt O95456) -0.014
PVR (UniProt P15151) -0.021
PSMD6 isoform 4 (UniProt Q15008) -0.009
PTPRA (UniProt P18433) -0.025
PTGES2 (UniProt Q9H7Z7) 0.162
PSMA2 (UniProt P25787) 0.025
PTPA isoform 2 (UniProt Q15257) -0.034
PUS10 (UniProt Q3MIT2) -0.102
PRRC2B (UniProt Q5JSZ5) -0.059
PSMC3IP (UniProt Q9P2W1) 0.019
PSMA5 (UniProt P28066) -0.012
PSMC4 (UniProt P43686) -0.023
PTGES3 (UniProt Q15185) 0.001
PTK7 isoform 6 (UniProt Q13308) 0.103
PSMD7 (UniProt P51665) -0.016
PSMB7 (UniProt Q99436) -0.019
PTAR1 (UniProt Q7Z6K3) -0.028
PTS (UniProt Q03393) -0.023
PSRC1 (UniProt Q6PGN9) 0.033
PTRH2 (UniProt Q9Y3E5) -0.077
PRSS21 (UniProt Q9Y6M0) -0.018
PSME1 (UniProt Q06323) -0.02

compound: C1CCN(C1)C(=O)NC2=CC=CC(=C2)NC3=NC=C(C(=N3)NCCC4=CN=CN4)Br; experiment: as above
Summary of the method: as §1

log2 fold change, inactive:
PSMD14 (UniProt O00487) -0.004
PTBP1 (UniProt P26599) -0.032
PSMB1 (UniProt P20618) 0.003
PTRHD1 (UniProt Q6GMV3) 0.009
PTK2B (UniProt Q14289) 0.067
PURA (UniProt Q00577) -0.015
PTMA (UniProt P06454) -0.009
PUS7 isoform 2 (UniProt Q96PZ0) -0.028
PSAT1 (UniProt Q9Y617) -0.022
PRUNE1 (UniProt Q86TP1) -0.038
PSMG1 (UniProt O95456) -0.017
PVR (UniProt P15151) -0.014
PSMD6 isoform 4 (UniProt Q15008) 0.004
PTPRA (UniProt P18433) -0.082
PTGES2 (UniProt Q9H7Z7) 0.028
PSMA2 (UniProt P25787) 0.039
PTPA isoform 2 (UniProt Q15257) 0.002
PUS10 (UniProt Q3MIT2) -0.007
PRRC2B (UniProt Q5JSZ5) -0.075
PSMC3IP (UniProt Q9P2W1) -0.01
PSMA5 (UniProt P28066) 0.007
PSMC4 (UniProt P43686) -0.007
PTGES3 (UniProt Q15185) 0.021
PTK7 isoform 6 (UniProt Q13308) -0.046
PSMD7 (UniProt P51665) -0.012
PSMB7 (UniProt Q99436) 0.023
PTAR1 (UniProt Q7Z6K3) 0.011
PTS (UniProt Q03393) -0.069
PSRC1 (UniProt Q6PGN9) 0.078
PTRH2 (UniProt Q9Y3E5) -0.011
PRSS21 (UniProt Q9Y6M0) -0.003
PSME1 (UniProt Q06323) 0.034

compound: C1CN(CCC1(CC2=CC=C(C=C2)Cl)N)C3=NC=NC4=C3C=CN4; experiment: as above
Summary of the method: as §1

log2 fold change, inactive:
PSMD14 (UniProt O00487) -0.012
PTBP1 (UniProt P26599) 0.026
PSMB1 (UniProt P20618) 0
PTRHD1 (UniProt Q6GMV3) -0.018
PTK2B (UniProt Q14289) -0.068
PURA (UniProt Q00577) -0.005
PTMA (UniProt P06454) -0.017
PUS7 isoform 2 (UniProt Q96PZ0) 0.021
PSAT1 (UniProt Q9Y617) 0.018
PRUNE1 (UniProt Q86TP1) -0.022
PSMG1 (UniProt O95456) -0.014
PVR (UniProt P15151) -0.006
PSMD6 isoform 4 (UniProt Q15008) -0.006
PTPRA (UniProt P18433) 0.027
PTGES2 (UniProt Q9H7Z7) -0.023
PSMA2 (UniProt P25787) 0.008
PTPA isoform 2 (UniProt Q15257) 0.018
PUS10 (UniProt Q3MIT2) -0.008
PRRC2B (UniProt Q5JSZ5) -0.012
PSMC3IP (UniProt Q9P2W1) 0.014
PSMA5 (UniProt P28066) 0.02
PSMC4 (UniProt P43686) -0.022
PTGES3 (UniProt Q15185) 0.014
PTK7 isoform 6 (UniProt Q13308) 0.023
PSMD7 (UniProt P51665) 0.007
PSMB7 (UniProt Q99436) 0.028
PTAR1 (UniProt Q7Z6K3) -0.066
PTS (UniProt Q03393) 0.002
PSRC1 (UniProt Q6PGN9) -0.048
PTRH2 (UniProt Q9Y3E5) 0.027
PRSS21 (UniProt Q9Y6M0) 0.047
PSME1 (UniProt Q06323) 0.038
